Test results as given in PubChem BioAssay AID306 (DTP/NCI, 2004).
The list does not hold the whole screen: it gathers some chemical classes. Not every dose and run of a compound is shown. T/C: endpoint of the treated group in % of that of the vehicle group. For survival time, this PubChem deposit counts one and a half times the control or more as active, and values a quarter to a half above the control carry no call in these data; other NCI protocols may use other cut-offs. Some T/C values are marked as having no survivor count here; that says nothing about deaths at the dose. Schedule codes are those of the source, taken here to give the interval after Q, in days (D) or hours (H), and the number of doses after X. Some schedules carry Z or #; the key to these is not given.

Tested on: BDF1 mice, L1210 Methyl-GAG-resistant leukemia, survival T/C
Experiment: NCI In Vivo Anticancer Drug Screen. Data for tumor model L1210 Leukemia resistant to Methyl-GAG; NSC 32946 (subcutaneous) in B6D2F1 (BDF1) mice
Conditions: T/C endpoint: mean survival time, schedule: Q01DX Z (ip), vehicle: saline, higher T/C = longer survival
Procedure: The antitumor activity of compounds was measured in mice bearing transplantable tumors. Survival or tumor size were measured and the results are expressed as the measurement made in the treated group (T) divided by the measurement made in the vehicle treated control group (C). The tumor model used in this assay is L1210 Leukemia resistant to Methyl-GAG; NSC 32946 (subcutaneous) in B6D2F1 (BDF1) mice

SMILES: CN(CCCl)CCCl
- T/C (dose: 0.02 mg/kg/injection): 102 % of control [survivor count not shown]
- T/C (dose: 0.08 mg/kg/injection): 96 % of control [survivor count not shown]
- T/C (dose: 0.32 mg/kg/injection): 92 % of control [survivor count not shown]
